{"source": "patent US20050142568A1", "molecular_target": "^35S-Methionine labeled Luciferase", "assay": "GST pull-down of 35S-Met labelled luciferase (FIG. 7A)", "note": "These are yes or no findings as the source states them, for the method shown. Where a sequence is shown, tags or fusion partners need not be part of it.", "data": [{"binder": "CRN-1 glutathione S-transferase fusion protein GST-CRN-1(21-382) (protein, C. elegans, UniProt Q9N3T2 21-382, looked up, not shown: a dimerising Fc or GST) NEMKAFFGRTVAIDASMCLYQFLIAVRQDGSQLQSEDGETTSHLMGMLNRTVRMFENGVKPVYVFDGKPPDMKGGELEKRSERRAEAEKALTEAKEKGDVKEAEKFERRLVKVTKQQNDEAKRLLGLMGIPVVEAPCEAEAQCAHLVKAGKVFGTVTEDMDALTFGSTVLLRHFLAPVAKKIPIKEFNLSLALEEMKLSVEEFIDLCILLGCDYCGTIRGVGPKKAVELIRQHKNIETILENIDQNKYPPPEDWPYKRARELFLNPEVTKPEEVELTWKEADVEGVIQFLCGEKNFNEERIRNALAKLKTSRKSGTQGRIDSFFGNSTKVTCVTAATKRKAEEAEKAKKGAKKGGPPKKRAK", "values": [{"measurement": "binding", "result": "no binding (tested: 5 µg each (GST or GST-fusion protein))"}]}]}
